Measurements reported in PubChem BioAssay AID504791 (Drosophila RNAi Screening Center, 2011)
The deposit covers about 23,000 reagents; this is a random part of those that have a named target and a result. Of all reagents, 199 (0.86%) got an active call. 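Plate-scaled ratios behind the calls are not deposited; printed light signals are raw; many rows marked increased or decreased are still called inactive.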 Unmarked entries are inactive. The numbers tell different reagents against one gene apart. No sequences are given here. Not stated in the record: the direction of the score.

Purpose: 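Genes whose knock-down strengthens or weakens small-RNA reporter silencing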 (primary screen)
System: Drosophila S2-derived reporter cells
Knock-down reagent: long dsRNA against Drosophila genes, about 150-250 ng dsRNA per well (siRNA assay); about 80-120 ng (miRNA assay)
Duration: about 5 days (siRNA assay); about 4 days (miRNA assay)
Treatment: copper sulfate induction of reporters: 25 µM (siRNA assay); 200 mM stated (miRNA assay), 1-2 days before reading
Read-out: 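Dual luciferase assay: Renilla to firefly signal ratio in each well, scaled to the mean ratio of its plate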
Units: stable assay Renilla, run 1 in luminescence; stable assay firefly, run 1 in luminescence
Active means: 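a well was a first-pass pick when its plate-scaled ratio rose above 1.5 (siRNA assay) or 1.6 (miRNA assay), or dropped below 0.6; a gene counted only if two separate dsRNAs agreed on retest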

Dtd (D-aminoacyl-tRNA deacylase) — stable assay Renilla, run 1: 5134; stable assay firefly, run 1: 4.29e5
ECSIT — stable assay Renilla, run 1: 7127; stable assay firefly, run 1: 3.93e5
Plp (Pericentrin-like protein) #1 — stable assay Renilla, run 1: 7850; stable assay firefly, run 1: 4.22e5
Plp (Pericentrin-like protein) #2 — stable assay Renilla, run 1: 8340; stable assay firefly, run 1: 3.80e5
Plp (Pericentrin-like protein) #3 — stable assay Renilla, run 1: 9132; stable assay firefly, run 1: 3.51e5
CG30098 — stable assay Renilla, run 1: 7703; stable assay firefly, run 1: 5.49e5
CG6041 — stable assay Renilla, run 1: 6471; stable assay firefly, run 1: 2.52e5
CG31270 (retired record) — stable assay Renilla, run 1: 9315; stable assay firefly, run 1: 7.81e5
Gas8 (Growth arrest specific protein 8) — stable assay Renilla, run 1: 7802; stable assay firefly, run 1: 7.03e5
CG12105 — stable assay Renilla, run 1: 9198; stable assay firefly, run 1: 3.20e5
nrv2 (nervana 2) #1 — stable assay Renilla, run 1: 4871; stable assay firefly, run 1: 3.37e5
nrv2 (nervana 2) #2 — stable assay Renilla, run 1: 12122; stable assay firefly, run 1: 2.75e5
Ts (Thymidylate synthase) #1 — stable assay Renilla, run 1: 7827; stable assay firefly, run 1: 5.65e5
Ts (Thymidylate synthase) #2 — stable assay Renilla, run 1: 8418; stable assay firefly, run 1: 5.80e5
CG15011 — stable assay Renilla, run 1: 8438; stable assay firefly, run 1: 3.34e5
CG30268 — stable assay Renilla, run 1: 9526; stable assay firefly, run 1: 8.47e5
CG9578 — stable assay Renilla, run 1: 7470; stable assay firefly, run 1: 4.31e5
CG9686 — stable assay Renilla, run 1: 4588; stable assay firefly, run 1: 3.25e5
CG14570 — stable assay Renilla, run 1: 7842; stable assay firefly, run 1: 4.26e5
Mal-A2 (Maltase A2) — stable assay Renilla, run 1: 5768; stable assay firefly, run 1: 3.87e5
CG34320 (retired record) — stable assay Renilla, run 1: 7670; stable assay firefly, run 1: 4.32e5
CG1387 — stable assay Renilla, run 1: 8447; stable assay firefly, run 1: 4.23e5
side-II (sidestep II) #1 — stable assay Renilla, run 1: 5943; stable assay firefly, run 1: 4.42e5
side-II (sidestep II) #2 — stable assay Renilla, run 1: 5548; stable assay firefly, run 1: 4.23e5
side-II (sidestep II) #3 — stable assay Renilla, run 1: 7786; stable assay firefly, run 1: 3.87e5
side-II (sidestep II) #4 — stable assay Renilla, run 1: 5516; stable assay firefly, run 1: 4.91e5
side-II (sidestep II) #5 — stable assay Renilla, run 1: 5323; stable assay firefly, run 1: 5.81e5
side-II (sidestep II) #6 — stable assay Renilla, run 1: 3447; stable assay firefly, run 1: 2.92e5
CG10674 — stable assay Renilla, run 1: 6574; stable assay firefly, run 1: 4.09e5
CG2121 #1 — stable assay Renilla, run 1: 8742; stable assay firefly, run 1: 4.10e5
CG2121 #2 — stable assay Renilla, run 1: 6311; stable assay firefly, run 1: 3.54e5
Cpr50Ca (Cuticular protein 50Ca) #1 — stable assay Renilla, run 1: 5666; stable assay firefly, run 1: 3.69e5
Cpr50Ca (Cuticular protein 50Ca) #2 — stable assay Renilla, run 1: 5779; stable assay firefly, run 1: 3.30e5
Cpr50Ca (Cuticular protein 50Ca) #3 — stable assay Renilla, run 1: 5426; stable assay firefly, run 1: 3.40e5
Obp19c (Odorant-binding protein 19c) — stable assay Renilla, run 1: 6470; stable assay firefly, run 1: 4.99e5

4 successive records from above, quoted:
CG6041 — stable assay Renilla, run 1: 6471; stable assay firefly, run 1: 2.52e5
CG31270 (retired record) — stable assay Renilla, run 1: 9315; stable assay firefly, run 1: 7.81e5
Gas8 (Growth arrest specific protein 8) — stable assay Renilla, run 1: 7802; stable assay firefly, run 1: 7.03e5
CG12105 — stable assay Renilla, run 1: 9198; stable assay firefly, run 1: 3.20e5
